Assay results: article doi:10.1101/2021.05.14.443827
Results are given in words; binding and its absence hold for the method and conditions named. Binding seen in cells or lysates may run through a third protein. A yes stands for co-enrichment or nearness to the bait. Other partners may have been found.

How the values were obtained:
[1] = molecular target: SiiA-3×Flag (Salmonella enterica serovar Typhimurium) (UniProt H9L4G5); assay: affinity purification with mass spectrometry
[2] = molecular target: SiiB-3×Flag (Salmonella enterica serovar Typhimurium); assay: affinity purification with mass spectrometry

| Substance | binding [1] | binding [2] |
| --- | --- | --- |
| Trg (from UniProt A0A0F6B1Q1) | binds | – |
| CheM (from UniProt P02941 1-553) | binds | binds |
